In paper PMC10754441:

Target: DjlA variant with a C-terminal HA-tag (DjlA-HA) (Caulobacter crescentus)
Assay: affinity purification with mass spectrometry; LC-MS/MS of DjlA-HA pull-downs (anti-HA affinity matrix) from soluble lysates of WT cells expressing DjlA-HA, grown with or without NAL (10 ug/mL); control WT without DjlA-HA

Substance: AcrB (from UniProt A0A0H3CCS3)
- binding: binds

Results are given in words; binding and its absence hold for the method and conditions named. Binding seen in cells or lysates may run through a third protein. Here binding means that the protein was enriched with, or labelled near, the bait; the list need not be complete.
